Assay results published in the supplement of paper PMC10849652.
This is one part of the list.

The chains behind the UniProt entries cited, without tags or fusion partners. Where a name states a change or a piece, a line headed by the entry shows the natural chain unless it says otherwise.
UniProt P0DMU9: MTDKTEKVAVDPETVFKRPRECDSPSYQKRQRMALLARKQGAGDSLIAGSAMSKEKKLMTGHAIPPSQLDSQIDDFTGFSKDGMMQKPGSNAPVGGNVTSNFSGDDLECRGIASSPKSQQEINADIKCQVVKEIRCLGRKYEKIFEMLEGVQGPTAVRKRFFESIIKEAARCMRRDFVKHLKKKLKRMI
UniProt P08574: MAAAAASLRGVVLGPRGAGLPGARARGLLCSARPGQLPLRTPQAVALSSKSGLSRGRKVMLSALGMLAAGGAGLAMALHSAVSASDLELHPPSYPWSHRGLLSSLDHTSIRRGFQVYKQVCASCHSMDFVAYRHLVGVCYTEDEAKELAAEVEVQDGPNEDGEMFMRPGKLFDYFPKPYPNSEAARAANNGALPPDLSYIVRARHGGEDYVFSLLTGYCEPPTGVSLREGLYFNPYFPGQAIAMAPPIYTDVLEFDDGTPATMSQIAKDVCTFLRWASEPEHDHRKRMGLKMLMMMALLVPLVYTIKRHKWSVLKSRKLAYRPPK
UniProt Q96C86: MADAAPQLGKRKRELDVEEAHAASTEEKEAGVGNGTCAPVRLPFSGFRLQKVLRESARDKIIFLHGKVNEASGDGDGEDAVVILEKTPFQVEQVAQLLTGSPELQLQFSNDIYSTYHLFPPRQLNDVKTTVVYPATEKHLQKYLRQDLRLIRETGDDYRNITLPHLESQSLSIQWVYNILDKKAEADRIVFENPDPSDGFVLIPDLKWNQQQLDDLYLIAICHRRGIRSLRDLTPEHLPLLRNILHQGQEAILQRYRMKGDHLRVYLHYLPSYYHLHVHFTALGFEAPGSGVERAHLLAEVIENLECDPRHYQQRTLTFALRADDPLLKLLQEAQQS
UniProt Q7Z7A3: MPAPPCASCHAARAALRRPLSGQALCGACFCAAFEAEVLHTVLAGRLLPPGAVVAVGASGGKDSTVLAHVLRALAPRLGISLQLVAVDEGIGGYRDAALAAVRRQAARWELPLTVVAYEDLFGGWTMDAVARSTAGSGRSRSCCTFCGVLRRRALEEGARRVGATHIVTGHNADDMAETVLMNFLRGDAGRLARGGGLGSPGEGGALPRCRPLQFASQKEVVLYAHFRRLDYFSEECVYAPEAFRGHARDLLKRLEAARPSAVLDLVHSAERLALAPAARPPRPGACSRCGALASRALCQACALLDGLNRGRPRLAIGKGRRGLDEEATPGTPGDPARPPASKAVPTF
UniProt P53355: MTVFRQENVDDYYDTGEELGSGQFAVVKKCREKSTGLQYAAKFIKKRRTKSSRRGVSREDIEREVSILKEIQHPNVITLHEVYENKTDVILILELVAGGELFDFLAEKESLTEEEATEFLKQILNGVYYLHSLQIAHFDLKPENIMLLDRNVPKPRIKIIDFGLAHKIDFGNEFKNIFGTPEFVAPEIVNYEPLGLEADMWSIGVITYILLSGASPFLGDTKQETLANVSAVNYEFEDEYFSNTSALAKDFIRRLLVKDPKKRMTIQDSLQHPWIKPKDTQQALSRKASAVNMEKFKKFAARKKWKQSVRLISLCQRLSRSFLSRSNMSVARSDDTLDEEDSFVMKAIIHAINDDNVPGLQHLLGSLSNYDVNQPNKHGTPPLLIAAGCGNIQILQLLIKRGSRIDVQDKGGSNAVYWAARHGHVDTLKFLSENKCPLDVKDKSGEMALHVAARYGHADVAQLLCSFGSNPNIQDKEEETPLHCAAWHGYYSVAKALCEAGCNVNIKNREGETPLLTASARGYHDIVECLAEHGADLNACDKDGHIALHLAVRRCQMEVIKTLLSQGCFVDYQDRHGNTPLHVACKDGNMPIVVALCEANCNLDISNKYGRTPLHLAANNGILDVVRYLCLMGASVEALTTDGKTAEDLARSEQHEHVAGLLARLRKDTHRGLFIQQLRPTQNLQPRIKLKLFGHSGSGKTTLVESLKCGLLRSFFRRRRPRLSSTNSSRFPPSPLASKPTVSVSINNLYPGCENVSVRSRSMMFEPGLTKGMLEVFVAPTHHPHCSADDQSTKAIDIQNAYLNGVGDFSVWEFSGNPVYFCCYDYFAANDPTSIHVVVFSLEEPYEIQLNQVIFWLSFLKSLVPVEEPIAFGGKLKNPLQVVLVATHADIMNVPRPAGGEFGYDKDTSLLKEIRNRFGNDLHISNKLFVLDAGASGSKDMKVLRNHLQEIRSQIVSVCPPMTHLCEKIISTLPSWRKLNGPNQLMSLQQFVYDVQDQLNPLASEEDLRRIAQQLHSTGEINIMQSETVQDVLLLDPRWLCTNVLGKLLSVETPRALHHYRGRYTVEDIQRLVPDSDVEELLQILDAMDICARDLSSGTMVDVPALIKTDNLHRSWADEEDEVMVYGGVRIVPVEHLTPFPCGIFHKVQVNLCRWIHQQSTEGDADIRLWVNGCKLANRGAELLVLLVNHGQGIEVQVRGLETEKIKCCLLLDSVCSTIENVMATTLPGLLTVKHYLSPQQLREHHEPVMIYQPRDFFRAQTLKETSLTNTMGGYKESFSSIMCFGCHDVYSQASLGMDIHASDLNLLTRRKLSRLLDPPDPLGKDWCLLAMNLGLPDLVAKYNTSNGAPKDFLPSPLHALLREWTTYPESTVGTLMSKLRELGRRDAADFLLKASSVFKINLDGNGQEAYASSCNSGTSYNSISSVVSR
UniProt O95715: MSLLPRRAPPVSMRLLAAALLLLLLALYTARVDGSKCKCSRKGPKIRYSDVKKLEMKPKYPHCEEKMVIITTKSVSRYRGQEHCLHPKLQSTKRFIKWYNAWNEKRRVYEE
UniProt Q14247: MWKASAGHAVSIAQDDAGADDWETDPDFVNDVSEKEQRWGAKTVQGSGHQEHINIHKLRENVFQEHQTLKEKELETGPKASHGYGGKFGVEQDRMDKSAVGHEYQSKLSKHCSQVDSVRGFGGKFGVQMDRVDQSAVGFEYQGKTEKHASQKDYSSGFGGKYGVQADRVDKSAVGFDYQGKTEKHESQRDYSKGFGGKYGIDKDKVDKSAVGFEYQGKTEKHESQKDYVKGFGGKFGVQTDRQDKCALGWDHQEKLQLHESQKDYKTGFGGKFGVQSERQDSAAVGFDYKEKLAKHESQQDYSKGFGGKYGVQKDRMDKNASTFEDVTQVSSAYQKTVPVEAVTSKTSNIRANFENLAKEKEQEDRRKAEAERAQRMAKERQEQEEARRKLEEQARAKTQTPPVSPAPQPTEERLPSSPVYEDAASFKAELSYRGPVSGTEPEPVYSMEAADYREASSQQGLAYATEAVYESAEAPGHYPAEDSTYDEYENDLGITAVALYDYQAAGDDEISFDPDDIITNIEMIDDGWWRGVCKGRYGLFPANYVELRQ
UniProt P53634: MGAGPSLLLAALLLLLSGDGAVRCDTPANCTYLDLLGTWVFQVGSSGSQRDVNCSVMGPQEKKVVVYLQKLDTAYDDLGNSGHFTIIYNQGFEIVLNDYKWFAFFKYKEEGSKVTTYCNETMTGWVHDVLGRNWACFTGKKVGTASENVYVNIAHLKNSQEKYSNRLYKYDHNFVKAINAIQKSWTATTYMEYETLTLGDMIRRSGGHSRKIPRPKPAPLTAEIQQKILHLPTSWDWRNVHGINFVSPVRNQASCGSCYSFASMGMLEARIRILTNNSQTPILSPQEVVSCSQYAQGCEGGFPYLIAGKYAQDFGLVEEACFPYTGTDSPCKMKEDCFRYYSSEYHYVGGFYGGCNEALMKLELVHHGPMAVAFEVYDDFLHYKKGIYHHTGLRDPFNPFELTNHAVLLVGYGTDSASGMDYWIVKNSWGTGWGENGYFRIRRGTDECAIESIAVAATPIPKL
UniProt Q01459: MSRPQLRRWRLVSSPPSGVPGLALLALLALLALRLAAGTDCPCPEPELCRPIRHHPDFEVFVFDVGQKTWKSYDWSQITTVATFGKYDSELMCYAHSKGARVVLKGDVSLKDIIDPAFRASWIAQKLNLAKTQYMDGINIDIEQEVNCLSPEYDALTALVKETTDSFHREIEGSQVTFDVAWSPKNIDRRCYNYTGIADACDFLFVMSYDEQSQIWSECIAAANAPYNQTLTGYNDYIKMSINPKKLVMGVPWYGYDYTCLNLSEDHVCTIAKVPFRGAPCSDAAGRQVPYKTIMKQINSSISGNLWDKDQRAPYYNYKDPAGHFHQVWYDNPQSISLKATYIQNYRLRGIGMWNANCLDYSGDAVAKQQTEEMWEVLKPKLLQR
UniProt Q9NTM9: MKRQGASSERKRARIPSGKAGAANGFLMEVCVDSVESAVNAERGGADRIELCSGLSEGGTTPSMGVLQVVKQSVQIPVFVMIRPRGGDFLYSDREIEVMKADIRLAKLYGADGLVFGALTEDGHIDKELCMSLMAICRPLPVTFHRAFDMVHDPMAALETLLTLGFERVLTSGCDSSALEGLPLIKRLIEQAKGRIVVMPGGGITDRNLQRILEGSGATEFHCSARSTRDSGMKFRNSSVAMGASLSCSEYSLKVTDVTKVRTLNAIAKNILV
UniProt P07108: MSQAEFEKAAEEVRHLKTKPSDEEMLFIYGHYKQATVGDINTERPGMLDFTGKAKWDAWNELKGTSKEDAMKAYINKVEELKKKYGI
UniProt Q12996: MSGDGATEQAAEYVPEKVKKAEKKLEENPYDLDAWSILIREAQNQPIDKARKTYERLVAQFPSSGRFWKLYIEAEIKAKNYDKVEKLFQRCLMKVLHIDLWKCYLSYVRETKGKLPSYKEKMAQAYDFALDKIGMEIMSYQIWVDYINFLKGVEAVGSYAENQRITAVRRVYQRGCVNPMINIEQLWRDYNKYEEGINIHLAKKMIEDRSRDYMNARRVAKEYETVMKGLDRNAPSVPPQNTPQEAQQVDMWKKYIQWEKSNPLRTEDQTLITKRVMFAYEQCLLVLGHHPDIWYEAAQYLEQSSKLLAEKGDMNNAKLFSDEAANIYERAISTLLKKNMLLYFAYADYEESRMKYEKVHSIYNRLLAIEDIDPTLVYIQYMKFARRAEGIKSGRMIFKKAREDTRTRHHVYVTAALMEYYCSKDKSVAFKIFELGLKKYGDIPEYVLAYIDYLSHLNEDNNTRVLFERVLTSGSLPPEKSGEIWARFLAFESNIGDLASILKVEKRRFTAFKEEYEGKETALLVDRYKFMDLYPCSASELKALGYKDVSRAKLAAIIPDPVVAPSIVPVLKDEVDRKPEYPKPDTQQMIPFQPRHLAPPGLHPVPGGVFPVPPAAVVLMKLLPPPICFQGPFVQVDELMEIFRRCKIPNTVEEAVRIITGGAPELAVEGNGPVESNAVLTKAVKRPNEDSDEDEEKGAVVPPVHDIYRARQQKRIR
UniProt P07711: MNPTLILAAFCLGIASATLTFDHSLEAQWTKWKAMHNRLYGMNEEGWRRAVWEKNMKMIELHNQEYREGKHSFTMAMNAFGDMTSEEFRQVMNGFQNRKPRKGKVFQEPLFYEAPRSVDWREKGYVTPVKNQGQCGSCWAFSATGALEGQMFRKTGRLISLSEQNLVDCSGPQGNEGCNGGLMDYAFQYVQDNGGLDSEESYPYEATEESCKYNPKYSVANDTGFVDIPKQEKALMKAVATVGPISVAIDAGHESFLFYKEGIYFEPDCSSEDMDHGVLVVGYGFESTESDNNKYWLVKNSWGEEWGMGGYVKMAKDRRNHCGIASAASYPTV
UniProt O43310: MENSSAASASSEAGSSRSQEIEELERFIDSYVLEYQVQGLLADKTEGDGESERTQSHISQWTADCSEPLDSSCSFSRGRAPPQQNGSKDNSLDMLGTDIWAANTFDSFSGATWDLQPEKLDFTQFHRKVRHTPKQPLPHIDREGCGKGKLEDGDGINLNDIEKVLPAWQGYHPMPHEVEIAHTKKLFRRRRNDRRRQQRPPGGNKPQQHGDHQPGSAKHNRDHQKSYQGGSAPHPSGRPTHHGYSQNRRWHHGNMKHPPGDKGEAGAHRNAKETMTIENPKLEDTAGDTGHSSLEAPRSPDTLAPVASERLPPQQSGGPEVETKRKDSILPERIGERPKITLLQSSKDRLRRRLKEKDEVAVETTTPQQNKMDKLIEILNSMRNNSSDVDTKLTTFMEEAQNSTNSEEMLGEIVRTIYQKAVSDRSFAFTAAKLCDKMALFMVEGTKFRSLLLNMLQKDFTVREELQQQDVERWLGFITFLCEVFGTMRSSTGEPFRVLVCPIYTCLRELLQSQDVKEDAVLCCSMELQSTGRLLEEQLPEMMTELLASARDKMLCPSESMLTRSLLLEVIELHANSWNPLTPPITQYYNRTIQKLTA
UniProt Q9BTE1, whole entry, looked up: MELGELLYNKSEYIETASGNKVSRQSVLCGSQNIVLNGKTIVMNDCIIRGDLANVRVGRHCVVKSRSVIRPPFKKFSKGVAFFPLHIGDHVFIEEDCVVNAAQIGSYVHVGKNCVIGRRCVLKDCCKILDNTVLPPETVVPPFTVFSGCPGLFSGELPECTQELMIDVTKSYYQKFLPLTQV
UniProt O75935, whole entry, looked up: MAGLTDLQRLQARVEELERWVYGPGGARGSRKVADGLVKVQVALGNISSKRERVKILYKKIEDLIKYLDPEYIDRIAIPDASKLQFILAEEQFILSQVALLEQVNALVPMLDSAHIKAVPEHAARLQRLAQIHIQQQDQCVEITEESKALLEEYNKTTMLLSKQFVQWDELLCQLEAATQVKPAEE

These targets were tested with C1=CC=C(C=C1)[C@H](COC2=CC3=C(C=C2)NC(=O)N3)NC(=O)C4=CC=CN(C4=O)CC5=CC(=C(C=C5)F)F (assay: log2 fold change, soluble protein after heating vs DMSO (PISA); higher = thermal stabilisation; K562 cells, 10 uM, 30 min; active = over 0.2 and 3.5 SD of the protein, either way, in both replicates (recomputed)).
Method in brief: (§1)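 K562 cells at 2×10^6 cells/mL were treated with 10 μM compound for 30 min. Aliquots were heated for 3 min across 48°C-58°C, pooled, and extracted in PBS with 0.5% NP-40 at 4°C; soluble protein was the supernatant after 21,000xg for 90 min. Soluble protein was quantified by TMTpro 16plex LC-MS/MS with channel sums equalised, and reported as log2 fold change in thermal stability against DMSO controls, with values from duplicates.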

| Target | log2 fold change |
| --- | --- |
| CT45A10 (UniProt P0DMU9) | inactive: 0.075 |
| CYC1 (UniProt P08574) | inactive: 0.018 |
| DCPS (UniProt Q96C86) | inactive: 0.009 |
| CSTB (UniProt P04080) | inactive: 0.045 |
| DCTN4 (UniProt Q9UJW0) | inactive: 0.016 |
| CTU1 (UniProt Q7Z7A3) | inactive: -0.061 |
| DAPK1 isoform 3 (UniProt P53355) | inactive: -0.003 |
| CXCL14 (UniProt O95715) | inactive: -0.086 |
| CTTN (UniProt Q14247) | inactive: 0.029 |
| CTSC (UniProt P53634) | inactive: 0.018 |
| CUL4B (UniProt K4DI93) | inactive: 0.015 |
| CWF19L1 (UniProt Q69YN2) | inactive: -0.022 |
| DCAF1 (UniProt Q9Y4B6) | inactive: -0.017 |
| CTBS (UniProt Q01459) | inactive: 0.082 |
| D2HGDH (UniProt Q8N465) | inactive: 0.018 |
| DBT (UniProt P11182) | inactive: -0.003 |
| CTPS1 (UniProt P17812) | inactive: 0.007 |
| CYB5R4 (UniProt Q7L1T6) | inactive: -0.081 |
| CUTC (UniProt Q9NTM9) | inactive: -0.017 |

| Target | log2 fold change |
| --- | --- |
| CUL1 (UniProt Q13616) | inactive: 0.025 |
| DAAM2 (UniProt Q86T65) | inactive: -0.036 |
| CYP46A1 (UniProt Q9Y6A2) | inactive: 0.068 |
| CYB5R2 (UniProt Q6BCY4) | inactive: 0.053 |
| CSPP1 (UniProt Q1MSJ5) | inactive: 0.015 |
| DCTD isoform 2 (UniProt P32321) | inactive: 0.011 |
| DBI isoform 5 (UniProt P07108) | inactive: 0.011 |
| CSTF3 (UniProt Q12996) | inactive: -0.005 |
| CWC15 (UniProt Q9P013) | inactive: 0.07 |
| CTSL (UniProt P07711) | inactive: -0.017 |
| CTIF isoform 2 (UniProt O43310) | inactive: -0.089 |
| DCTN5 (UniProt Q9BTE1) | inactive: -0.002 |
| DCP1A (UniProt Q9NPI6) | inactive: -0.053 |
| DCAF6 isoform 3 (UniProt Q58WW2) | inactive: 0.04 |
| DCAF4L2 (UniProt Q8NA75) | inactive: -0.065 |
| DCTN3 (UniProt O75935) | inactive: -0.033 |
| DBN1 isoform 3 (UniProt Q16643) | inactive: 0.049 |
| CSRP1 (UniProt P21291) | inactive: 0.013 |

What follows are targets tested with CC1=C(SC2=C1C(=N[C@H](C3=NN=C(N32)C)CC(=O)N)C4=CC=C(C=C4)Cl)C in the same assay as above.
Method in brief: as §1

| Target | log2 fold change |
| --- | --- |
| CT45A10 (UniProt P0DMU9) | inactive: -0.271 |
| CYC1 (UniProt P08574) | inactive: 0.016 |
| DCPS (UniProt Q96C86) | inactive: 0.032 |
| CSTB (UniProt P04080) | inactive: 0.124 |
| DCTN4 (UniProt Q9UJW0) | inactive: 0.016 |
| CTU1 (UniProt Q7Z7A3) | inactive: 0.025 |
| CTTN (UniProt Q14247) | inactive: 0.003 |
| CTSC (UniProt P53634) | inactive: -0.012 |
| CUL4B (UniProt K4DI93) | inactive: 0.036 |
| CWF19L1 (UniProt Q69YN2) | inactive: 0.011 |
| DCAF1 (UniProt Q9Y4B6) | inactive: 0.027 |
| CTBS (UniProt Q01459) | inactive: -0.002 |
| D2HGDH (UniProt Q8N465) | inactive: 0.181 |
| DBT (UniProt P11182) | inactive: -0.004 |
| CTPS1 (UniProt P17812) | inactive: 0.012 |
| CYB5R4 (UniProt Q7L1T6) | inactive: 0.048 |
| CUTC (UniProt Q9NTM9) | inactive: -0.006 |

| Target | log2 fold change |
| --- | --- |
| CUL1 (UniProt Q13616) | inactive: 0.02 |
| CYP46A1 (UniProt Q9Y6A2) | inactive: 0.028 |
| CYB5R2 (UniProt Q6BCY4) | inactive: -0.009 |
| CSPP1 (UniProt Q1MSJ5) | inactive: -0.009 |
| DCTD isoform 2 (UniProt P32321) | inactive: 0.064 |
| DBI isoform 5 (UniProt P07108) | inactive: 0.107 |
| CSTF3 (UniProt Q12996) | inactive: 0.064 |
| CWC15 (UniProt Q9P013) | inactive: 0.031 |
| CTSL (UniProt P07711) | inactive: -0.07 |
| CTIF isoform 2 (UniProt O43310) | inactive: 0.024 |
| DCTN5 (UniProt Q9BTE1) | inactive: 0.022 |
| DCP1A (UniProt Q9NPI6) | inactive: 0 |
| DCAF6 isoform 3 (UniProt Q58WW2) | inactive: -0.017 |
| DCAF4L2 (UniProt Q8NA75) | inactive: 0.004 |
| DCTN3 (UniProt O75935) | inactive: 0.046 |
| DBN1 isoform 3 (UniProt Q16643) | inactive: 0.019 |
| CSRP1 (UniProt P21291) | inactive: 0.04 |
